Data reported in PubChem BioAssay AID602313 (National Center for Advancing Translational Sciences (NCATS), 2012).
About 760 (0.19%) of roughly 390,000 compounds were called active. Inconclusive means that the source gave no clear call. Such entries were picked first, then a sample of the others. Calls come from the whole dose curve; as a rule, active = well fitted inhibition curve with a large enough effect; inconclusive = small, poorly fitted or top-dose-only effect; inactive = flat fitted curve, though single readings scatter. A potency beside an inconclusive call is a rough fit, not a confirmed value.

Assay: qHTS for Inhibitors of Vif-A3F Interactions: qHTS; note: nearly all actives have a fitted effect of over 65% in size; for activity, negative = active: % of control where 0% means no effect
Conditions: HeLa A3F-eYFP + Vif (tagged APOBEC3F with the HIV-1 protein that degrades it), YFP fluorescence increase; series mostly up to 46.1 µM; activity, negative = active: at the top concentration
Procedure, shortened: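 HeLa cells stably expressing Vif plus C-terminally eYFP-tagged A3F were seeded, incubated overnight at 37 deg C, dosed with compound, incubated overnight again at 37 deg C. Yellow fluorescence (Ex 488/Em 500-530) reported blocked Vif-mediated A3F-eYFP degradation.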
Potency is the fitted concentration of half-maximal effect.

Row | SMILES | Potency | activity, negative = active
1 | O=Nc1onc(-c2ccc([N+](=O)[O-])cc2)c1NO | inconclusive: 35.5 µM [inhibitor, single point] | 
2 | C/C(=N\Nc1nc(C)c(C)s1)c1ccc([N+](=O)[O-])cc1 | inconclusive: 35.5 µM [inhibitor, single point] | 
3 | C=CCn1c(O)c(N=Nc2nc3ccccc3c(=O)n2-c2ccccc2)c2ccccc21 | inconclusive: 35.5 µM [inhibitor, single point] | 
4 | N#CC1=C(N)C(C#N)(C#N)[C@H](c2c(F)cccc2F)[C@H]2CC3(CC=C12)OCCO3 | active: 22.4 µM | 
5 | CC(C)CNC(=O)C(=O)Nc1ccc2c(c1)N(S(=O)(=O)c1cccs1)CCC2 | inconclusive: 3.16 µM [inhibitor, single point] | 
6 | O=C(OCCN1C(=O)c2cccc3c(N4CCOCC4)ccc(c23)C1=O)c1ccccc1Cl | inconclusive: 25.1 µM [inhibitor, single point] | 
7 | CC1CCN(c2ccc3c(c2)S(=O)(=O)c2cccc(C(=O)NCc4cccc(F)c4)c2C3=O)CC1 | inconclusive: 35.5 µM [inhibitor, single point] | 
8 | COc1cccc(CN2CCNC(=O)C2CC(=O)NC2CCCCC2)c1OC (centres undefined) |  | inactive: 2.51%
9 | CCOC(=O)CSc1ncnc2c1sc1nc(N3CCOCC3)c3c(c12)CCCC3 |  | inactive: -9.99%
10 | Cc1ccccc1N(C=O)c1ccccc1C | inconclusive: 7.94 µM [inhibitor, partial curve, poor fit] | 
11 | CCCc1cc(=O)oc2c(CN3CCN(C)CC3)c(O)ccc12 |  | inactive: 7.42%
12 | Cc1cc(C(=O)CN2C(=O)NC(C)(CC(C)C)C2=O)c(C)n1-c1ccc2c(c1)OCO2 (centres undefined) | inconclusive: 17.8 µM [inhibitor, partial curve, poor fit] | 
13 | O=C(OCC(=O)N1N=C(c2ccc(Cl)cc2)CC1c1ccco1)c1cncc(Br)c1 (centres undefined) |  | inactive: 0.912%
14 | O=C(O)C1Nc2c(Cl)cc(Cl)cc2C2C=CCC12 (centres undefined) |  | inactive: -1.54%
15 | O=[N+]([O-])c1ccccc1/C=C/c1ccc2ccccc2n1 |  | inactive: -0.834%
16 | O=C(CSc1nnc(Nc2ccccc2F)s1)NCc1ccco1 | inconclusive: 35.5 µM [inhibitor, single point] | 
17 | Cc1ccc(-c2nnc(Nc3ccc4c(c3)OCO4)c3ccccc23)cc1S(=O)(=O)NCCO |  | inactive: -1.15%
18 | CCc1nc2ccccc2n1CCCCOc1cccc(C)c1 |  | inactive: 2.87%
19 | CC(/C=N/NC(=O)NC1CCCCC1)=C\c1ccccc1 | inconclusive: 35.5 µM [inhibitor, single point] | 
20 | CCOc1cc(C=C2C(=O)c3ccccc3C2=O)ccc1OCC(=O)Nc1ccc(C)cc1 | inconclusive: 12.6 µM [inhibitor, single point] | 
21 | Cc1ccc(/C=N/n2c(C)nnc2C)o1 |  | inactive: 1.79%
22 | CC(C)Sc1oc(-c2ccco2)nc1S(=O)(=O)c1ccc(F)cc1 |  | inactive: -0.294%

Row | SMILES | Potency | activity, negative = active
23 | CCOC(=O)c1cc(-c2ccccc2)n(CC(=O)Nc2ccc(CC)cc2)c1C |  | inactive: -21.9%
24 | COc1ccc(NC(=O)NS(=O)(=O)c2ccc(C)cc2)cn1 | inconclusive: 11.2 µM [inhibitor, partial curve, poor fit] | 
25 | Cc1ccc(CNS(=O)(=O)c2c(C)[nH]c(=O)[nH]c2=O)cc1 | inconclusive: 22.4 µM [inhibitor, single point] | 
26 | CC(C)(C)OC(=O)NCCCC[C@H](NC(=O)c1[nH]cnc1C(=O)Nc1ccccc1)C(=O)OC(C)(C)C |  | inactive: -2.5%
27 | CC(=O)Nc1ccccc1Sc1ccc2c3c(cccc13)C(=O)N(c1ccc(C)cc1)C2=O | inconclusive: 3.98 µM [inhibitor, full curve, poor fit] | 
28 | Cc1ccc(Cl)cc1N1CCN(C(=O)c2cc(S(=O)(=O)N3CCCC3)c[nH]2)CC1 | inconclusive: 0.562 µM [inhibitor, full curve, poor fit] | 
29 | Cc1ccc2c(c1)C=CC(C)(C)S2=O (centres undefined) | inconclusive: 22.4 µM [inhibitor, partial curve, poor fit] | 
30 | O=C(NCCNC(=O)c1ccccc1)c1ccccc1 |  | inactive: 2.27%
31 | COc1cnc(-c2ccccn2)nc1Oc1c(C)cccc1C | inconclusive: 2 µM [inhibitor, partial curve, poor fit] | 
32 | COCCSc1nnc(NC(=O)C2CC(=O)N(c3ccc(Cl)cc3)C2)s1 (centres undefined) | inconclusive: 35.5 µM [inhibitor, partial curve, poor fit] | 
33 | COc1cccc(C=CC(=O)C=CC=Cc2ccccc2)c1 | inconclusive: 22.4 µM [inhibitor, single point] | 
34 | CC1(S(=O)(=O)O)CC(=O)c2ccccc2C1=O (centres undefined) | inconclusive: 6.31 µM [inhibitor, full curve] | 
35 | Cc1ccc(C)c(NC(=O)CSc2nc3c([nH]c4ccccc43)c(=O)n2-c2ccc(F)cc2)c1 |  | inactive: -4.4%
36 | Cn1nc(-c2ccc(Cl)cc2)c2cc(C(=O)NCCCN3CCOCC3)sc21 | inconclusive: 25.1 µM [inhibitor, single point] | 
37 | CC(C)(C)CN1CCC(Oc2cccc(C(=O)N3CCC[C@H]3CO)c2)CC1 | inconclusive: 10 µM [inhibitor, partial curve, poor fit] | 
38 | Cn1cc(CNCc2cn(C)nc2-c2ccc(C3CCCCC3)cc2)cn1 |  | inactive: 0.83%
39 | O=C(CSc1n[nH]c(-c2cccnc2)n1)Nc1ccc(Cl)cc1 | inconclusive: 7.94 µM [inhibitor, partial curve, poor fit] | 
40 | CCOc1ccc(CCNC(=O)C2CCC(=O)N2C2CCCCC2)cc1OCC (centres undefined) |  | inactive: -3.52%
41 | COc1ccccc1/C=C/C=N/NC(=O)c1cc(-c2ccc(C)o2)[nH]n1 | inconclusive: 6.31 µM [inhibitor, single point] | 
42 | COc1ccccc1N(C)S(=O)(=O)c1ccc(C(=O)OCC(=O)N2CCC2)cc1 | inconclusive: 35.5 µM [inhibitor, single point] | 
43 | Cc1ccc(C(=O)CSc2ccc(-c3ccccc3)nn2)cc1 | inconclusive: 6.31 µM [inhibitor, single point] | 
44 | O=[N+]([O-])c1cccc(/C=C/C=N/Nc2nc(N3CCCCC3)nc(N3CCCCC3)n2)c1 | inconclusive: 12.6 µM [inhibitor, single point] | 
